Some entries share one result that the patent states for a list of compounds. At least one compound was matched to its structure with a doubt left.
Each compound was assayed on skin of the upper lip (philtrum) (assay: Cooling sensation bioassay, ointment applied to skin above the upper lip (philtrum) of test subjects). Conditions: 0.5% ointment, FIG. 1.
Format: in vivo, human
Source text: A reliable place for topical application is on the upper lip, above the vermillion border of the lips, on the philtrum, lateral to the philtrum until the nasolabial folds, and on the lower nostrils. This part of the face is known to be densely innervated with cold receptors, second only to the surface of eyeball. Tingling, cool and cold sensations may be experienced and rated for intensity. This test is quite accurate for predicting the cooling activity of candidate N-arylshydroxyalkylidene-cCarboxamide drugs, but most importantly, it also measures the duration of drug action on the sensory receptors. The duration of action is not measured in a receptor assay and is difficult to quantify on the tongue because of the dynamic fluid conditions in the oral cavity and the presence of taste factors that affect thermosensation.
For bioassay of […] on the skin, CPS-195 was stirred and dissolved in warm liquid Aquaphor® ointment to yield ointment concentrations of 0.25, 0.5, 1, and 2% wt/vol. After cooling, 50 to 80 mg of the solid ointment was placed on the tip of a plastic stick and applied to the skin above the upper lip, on the philtrum, and lateral to the philtrum up to the nasolabial folds, of test subjects and the onset and duration of cooling sensations recorded. Each of the compounds produce cooling on the skin of the upper lip with duration of action of more than 1 hour.
The intensity of the subjective skin sensation is rated as 0, 1, 2 or 3 with 0 as no change, 1 as slight coolness, cold, or tingling, 2 as clear cut signal of coolness, cold, or tingling, and 3 as robust cooling or cold. The interval for recording sensations is at 5 minute intervals, until two successive zeroes are obtained. The results are averaged values of 4 to 6 separate trials in the same individual. The data were plotted using SigmaPlot (Systat Software, Point Richmond Calif.) and a smoothing function with a negative exponential was used for analysis and statistical fit of the results.
The onset of drug action was taken as the time to reach 2 units of coolness intensity, and offset of drug action was the time when coolness intensity drops below 1.5, after previously surpassing 2 units. The duration of cooling action was defined as the offset time minus the onset time, which in this case averaged 2 minutes. The quality of the sensation was also noted, such as refreshing coolness, cold, or if the sensation was accompanied by irritation (stinging or burning). The quality of the sensation was not rated for intensity.

SMILES	duration of action of cooling on the skin of the upper lip
CC(=O)c1ccc(C(CO)CNC(=O)[C@@H]2C[C@H](C)CC[C@H]2C(C)C)cc1 (stereo partly shown) [CPS-179]	more than 1 hour
CC1CCC(C(C)C)C(C(=O)NCC(O)c2cccc(O)c2)C1 (stereo not shown) [CPS-192]	more than 1 hour
CC1CCC(C(C)C)C(C(=O)N(C)CC(O)c2ccc(O)c(O)c2)C1 (stereo not shown) [CPS-190]	more than 1 hour
CC(C)[C@@H]1CC[C@@H](C)C[C@H]1C(=O)N(C)CC(O)c1cccc(O)c1 (stereo in doubt) [CPS-195, 2-isopropyl-5-methyl-cyclohexanecarboxylic acid (2′-hydroxy-2′-[3″-hydroxy-phenyl]-ethyl)-N-methyl-amide]	more than 1 hour
